{
  "source": "the supplement of paper PMC12542422",
  "note": "Counter-ions that a name gives are not always drawn. ± gives the standard deviation of the averaged measurements. The list shows a part of the results. These are raw signals, not scaled to a control.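 Across three biological replicates, HeLa cells were imaged for ribosome assembly using ENP1 staining (export block present or absent) or inducible tagged ribosomal protein reporters. Machine learning classified each cell's signal localization relative to DMSO controls. Hits exceeded the DMSO false-positive mean by five standard deviations and were then visually confirmed.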",
  "data": [
    {"tested_on": "HeLa RPS2-YFP reporter", "assay": "fraction of reporter-positive cells with nuclear (nucleolar or nucleolar/nucleoplasmic) RPS2-YFP (MainHitrate); higher = more cells with nucleolar/nuclear readout signal (for ENP1 -LMB: less RNAPI inhibition; for +LMB ENP1 and RP reporters: stronger nuclear/nucleolar retention, i.e. ribosome biogenesis defect)", "settings": "concentration: 1 µM; treatment time: 6 h", "values": [
      {"smiles": "COc1ccc2[nH]c([S@@+]([O-])Cc3ncc(C)c(OC)c3C)nc2c1", "note": "[Esomeprazole sodium (Nexium)]", "fraction of reporter-positive cells with nuclear": "0.112 ± 0.094"},
      {"smiles": "Nc1ncn([C@H]2C[C@H](O)[C@@H](CO)O2)c(=O)n1", "note": "[Decitabine]", "fraction of reporter-positive cells with nuclear": "0.0905 ± 0.072"},
      {"smiles": "CCCCN(CCCC)CCCOC(=O)c1ccc(N)cc1", "note": "[Butacaine]", "fraction of reporter-positive cells with nuclear": "0.167 ± 0.18"},
      {"smiles": "CN/C(=N\\CCSCc1nc[nH]c1C)NC#N", "note": "[Cimetidine (Tagamet)]", "fraction of reporter-positive cells with nuclear": "0.113 ± 0.084"},
      {"smiles": "CCCCCCCCCCC[C@@H](C[C@@H]1OC(=O)[C@H]1CCCCCC)OC(=O)[C@H](CC(C)C)NC=O", "note": "[Orlistat (Alli, Xenical)]", "fraction of reporter-positive cells with nuclear": "0.109 ± 0.067"},
      {"smiles": "NCC[C@H](O)C(=O)N[C@@H]1C[C@H](N)[C@@H](O[C@H]2O[C@H](CN)[C@@H](O)[C@H](O)[C@H]2O)[C@H](O)[C@H]1O[C@H]1O[C@H](CO)[C@@H](O)[C@H](N)[C@H]1O", "note": "[Amikacin hydrate]", "fraction of reporter-positive cells with nuclear": "0.101 ± 0.1"},
      {"smiles": "CC1(C)O[C@@H]2C[C@H]3[C@@H]4CCC5=CC(=O)C=C[C@]5(C)[C@@]4(F)[C@@H](O)C[C@]3(C)[C@]2(C(=O)CO)O1", "note": "[Triamcinolone Acetonide]", "fraction of reporter-positive cells with nuclear": "0.176 ± 0.11"},
      {"smiles": "Cc1ccc(C(=O)C(C)CN2CCCCC2)cc1", "note": "(stereo not given) [Tolperisone HCl]", "fraction of reporter-positive cells with nuclear": "0.143 ± 0.12"},
      {"smiles": "CCCOc1ccc2[nH]c(NC(=O)OC)nc2c1", "note": "[Oxibendazole]", "fraction of reporter-positive cells with nuclear": "0.164 ± 0.085"},
      {"smiles": "CCN(CC)C(=S)SSC(=S)N(CC)CC", "note": "[Disulfiram (Antabuse)]", "fraction of reporter-positive cells with nuclear": "0.189 ± 0.22"},
      {"smiles": "CN(C)c1cc(NC(=O)CNC(C)(C)C)c(O)c2c1C[C@H]1C[C@H]3[C@H](N(C)C)C(O)=C(C(N)=O)C(=O)[C@@]3(O)C(O)=C1C2=O", "note": "[Tigecycline]", "fraction of reporter-positive cells with nuclear": "0.118 ± 0.071"},
      {"smiles": "CN1C(C(=O)Nc2ccccn2)=C(O)c2sc(Cl)cc2S1(=O)=O", "note": "[Lornoxicam (Xefo)]", "fraction of reporter-positive cells with nuclear": "0.1 ± 0.052"},
      {"smiles": "N[C@H](Cc1ccccc1)C(=O)O", "note": "[D-Phenylalanine]", "fraction of reporter-positive cells with nuclear": "0.133 ± 0.084"},
      {"smiles": "CC(C(=O)O)c1ccc(-c2ccccc2)c(F)c1", "note": "(stereo not given) [Flurbiprofen (Ansaid)]", "fraction of reporter-positive cells with nuclear": "0.104 ± 0.093"},
      {"smiles": "Nc1nc2c(ncn2COCCO)c(=O)[nH]1", "note": "[Acyclovir (Aciclovir)]", "fraction of reporter-positive cells with nuclear": "0.102 ± 0.075"},
      {"smiles": "Cc1ccccc1C(=O)Nc1ccc(C(=O)N2CCCC(O)c3cc(Cl)ccc32)c(C)c1", "note": "(stereo not given)", "fraction of reporter-positive cells with nuclear": "0.108 ± 0.088"},
      {"smiles": "N[C@@H]1CN(c2c(F)cc3c(=O)c(C(=O)O)cn([C@@H]4C[C@@H]4F)c3c2Cl)CC12CC2", "note": "[Sitafloxacin hydrate]", "fraction of reporter-positive cells with nuclear": "0.12 ± 0.067"},
      {"smiles": "Cc1cc2c(cc1S(N)(=O)=O)S(=O)(=O)CCC2", "note": "[Meticrane]", "fraction of reporter-positive cells with nuclear": "0.165 ± 0.15"},
      {"smiles": "CC(=O)O[C@H]1C[C@@H]2CC[C@@H]3[C@H](CC[C@@]4(C)[C@H]3C[C@H]([N+]3(C)CCCCC3)[C@@H]4OC(C)=O)[C@@]2(C)C[C@@H]1N1CCCCC1", "note": "[Vecuronium Bromide]", "fraction of reporter-positive cells with nuclear": "0.114 ± 0.079"},
      {"smiles": "CC(C)[N+]1(C)[C@@H]2CC[C@H]1C[C@@H](OC(=O)C(CO)c1ccccc1)C2", "note": "(stereo not given in full) [Ipratropium bromide]", "fraction of reporter-positive cells with nuclear": "0.0822 ± 0.046"},
      {"smiles": "CN(C)CCC(c1ccc(Br)cc1)c1ccccn1", "note": "(stereo not given) [Brompheniramine]", "fraction of reporter-positive cells with nuclear": "0.108 ± 0.085"},
      {"smiles": "CC(C)NCC(O)c1ccc(O)c(O)c1", "note": "(stereo not given) [Isoprenaline hydrochloride]", "fraction of reporter-positive cells with nuclear": "0.126 ± 0.085"},
      {"smiles": "OC[C@@H](O)[C@@H](O)[C@H](O)[C@H](O)CO", "note": "[D-Mannitol (Osmitrol)]", "fraction of reporter-positive cells with nuclear": "0.128 ± 0.093"},
      {"smiles": "CN(C)CCN(Cc1cccs1)c1ccccn1", "note": "[Methapyrilene HCl]", "fraction of reporter-positive cells with nuclear": "0.166 ± 0.17"},
      {"smiles": "COc1ccc([C@H]2CNC(=O)C2)cc1OC1CCCC1", "note": "[S-(+)-Rolipram]", "fraction of reporter-positive cells with nuclear": "0.0929 ± 0.038"},
      {"smiles": "C#C[C@]1(O)CC[C@H]2[C@@H]3CCc4cc(O)ccc4[C@H]3CC[C@@]21C", "note": "[Ethinyl Estradiol]", "fraction of reporter-positive cells with nuclear": "0.151 ± 0.11"},
      {"smiles": "CO[C@H]1C[C@@H]2CC[C@@H](C)[C@@](O)(O2)C(=O)C(=O)N2CCCC[C@H]2C(=O)O[C@H]([C@H](C)C[C@@H]2CC[C@@H](O)[C@H](OC)C2)CC(=O)[C@H](C)/C=C(\\C)[C@@H](O)[C@@H](OC)C(=O)[C@H](C)C[C@H](C)/C=C/C=C/C=C/1C", "note": "[Rapamycin (Sirolimus)]", "fraction of reporter-positive cells with nuclear": "0.163 ± 0.16"},
      {"smiles": "COC(=O)[C@H](c1ccccc1Cl)N1CCc2sccc2C1", "note": "[Clopidogrel (Plavix)]", "fraction of reporter-positive cells with nuclear": "0.112 ± 0.062"},
      {"smiles": "C[C@H]1C[C@H]2[C@@H]3CCC4=CC(=O)C=C[C@]4(C)[C@@]3(F)[C@@H](O)C[C@]2(C)[C@@]1(O)C(=O)CO", "note": "[Betamethasone (Celestone)]", "fraction of reporter-positive cells with nuclear": "0.123 ± 0.1"},
      {"smiles": "CN(C)c1ccc(C(=C2C=CC(=[N+](C)C)C=C2)c2ccc(N(C)C)cc2)cc1", "note": "[Crystal violet]", "fraction of reporter-positive cells with nuclear": "0.32 ± 0.3"}
    ]}
  ]
}
